Test results published in the supplement of paper PMC3334620.
Over roughly 33,000 sequences, “E-score (-0.5 to 0.5)” has its median near -0.016; the highest 2% begin near 0.3. This is one part of the list.

These sequences were tested against T1, Yer184c (UniProt P39961) (assay: PBM E-score (8-mer binding enrichment) (E-score (-0.5 to 0.5)); higher = stronger / more preferred TF binding). Conditions: protein concentration: 100 nM; construct: GST-full length.
T1 sequence: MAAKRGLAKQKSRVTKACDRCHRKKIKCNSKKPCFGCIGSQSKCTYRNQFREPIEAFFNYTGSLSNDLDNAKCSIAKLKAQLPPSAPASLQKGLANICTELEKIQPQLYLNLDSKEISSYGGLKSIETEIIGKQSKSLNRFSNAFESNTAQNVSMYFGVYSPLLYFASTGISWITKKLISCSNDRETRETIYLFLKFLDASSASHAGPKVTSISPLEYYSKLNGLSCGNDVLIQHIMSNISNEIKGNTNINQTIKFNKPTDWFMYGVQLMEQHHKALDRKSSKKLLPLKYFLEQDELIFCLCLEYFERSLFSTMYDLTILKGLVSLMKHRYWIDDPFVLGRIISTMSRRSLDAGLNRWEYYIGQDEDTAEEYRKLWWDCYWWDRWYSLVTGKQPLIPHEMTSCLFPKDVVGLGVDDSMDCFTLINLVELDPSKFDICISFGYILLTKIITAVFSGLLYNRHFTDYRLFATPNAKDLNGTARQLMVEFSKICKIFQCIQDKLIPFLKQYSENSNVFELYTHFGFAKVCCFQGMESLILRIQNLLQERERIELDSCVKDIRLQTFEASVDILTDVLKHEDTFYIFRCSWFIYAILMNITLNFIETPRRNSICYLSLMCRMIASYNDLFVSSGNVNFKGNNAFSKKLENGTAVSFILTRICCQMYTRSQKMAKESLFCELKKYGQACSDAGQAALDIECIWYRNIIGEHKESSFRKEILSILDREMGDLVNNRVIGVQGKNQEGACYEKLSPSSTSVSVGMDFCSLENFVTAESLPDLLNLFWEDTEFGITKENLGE
Method in brief: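 Full-length yeast transcription factors or their DNA-binding domains, GST-tagged and expressed with PURExpress, were applied at about 100-200 nM to universal all-10-mer Agilent arrays. These arrays had been made double-stranded by primer extension on fresh or once-stripped slides. Detection used fluorescent anti-GST, normalisation used masliner, and E-scores for ungapped eight-base words pooled with reverse complements came from the Universal PBM Analysis Suite.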

| Sequence | PBM E-score |
| --- | --- |
| CTACTTAC | -0.0111 |
| CATCTGAC | -0.183 |
| AATTCTGT | 0.099 |
| AACAATTA | 0.261 |
| GGTGGGAC | -0.349 |
| GCCGAACC | 0.323 |
| AACTATCC | 0.025 |
| CGATCGAA | 0.0725 |
| ATGGCGCA | -0.0903 |
| AATCCGCG | 0.163 |
| ACTATTTA | 0.231 |
| CACATAGC | -0.0851 |
| GAGTAGTA | 0.0836 |
| CCAGTACC | -0.236 |
| CCTACCCG | -0.00507 |
| AGCCGGGG | 0.0566 |
| GCGTTTCA | 0.0673 |
| GGTGTCCA | -0.0634 |
| ACTGAAAG | 0.105 |
| CCAGCGTA | -0.0152 |
| CCCTTGGA | -0.0497 |
| ATTACACC | 0.0279 |
| CTACGCAC | -0.0922 |
| CGTTACAC | 0.0665 |
| GAAGCTTC | 0.0597 |

| Sequence | PBM E-score |
| --- | --- |
| CCGAGGTA | 0.0952 |
| GGCATCCA | -0.179 |
| GAATTCAA | 0.251 |
| GGTTAGCA | -0.107 |
| AAAAATGC | 0.143 |
| CAAAGTCA | 0.0372 |
| AGATGCAC | -0.348 |
| CTATTCGA | -0.0207 |
| CTTGCCGC | 0.0967 |
| GCTCCGAA | 0.298 |
| AGTATTCC | 0.166 |
| CAGCACTA | -0.097 |
| GGAGCCGA | 0.177 |
| CCCAGTTC | 0.0635 |
| AAGTATTG | -0.0329 |
| TATTTGCA | 0.104 |
| TGTCCACA | -0.00412 |
| ACACTGAT | -0.125 |
| GTGTTTGA | 0.15 |
| GAACGGAC | 0.082 |
| AAGCATTG | -0.231 |
| AAGGGTAC | -0.138 |
| AACAAGTG | 0.00907 |
| AGGAGATC | 0.05 |
| AGCCTTAA | 0.0753 |

Looked up one by one from the entries so far (3):

| Sequence | PBM E-score |
| --- | --- |
| AAGGGTAC | -0.138 |
| GAACGGAC | 0.082 |
| AAGTATTG | -0.0329 |

Additional records:

| Sequence | PBM E-score |
| --- | --- |
| GTGGAGCA | 0.0109 |
| AATCTTCA | 0.196 |
| CGACCCAC | -0.0723 |
| AGGAAGCC | 0.03 |
| ATGAGCAC | -0.0939 |
| ACGTGAAG | -0.104 |
| CCACGTAC | -0.342 |
| CAGCGAGA | -0.165 |
| AGCTATAA | -0.0676 |
| CGGGGAAG | 0.0845 |
| GATCCAGC | -0.207 |
| ATTCTGGC | 0.0115 |
| AAAGAAAC | 0.264 |
| AAAAATCC | 0.0959 |
| ATCCACCC | -0.274 |
| TCAGTGAA | -0.0744 |
| ACCTGGCG | -0.268 |
| CCATGATC | -0.197 |
| GGCCTAAC | 0.0745 |
| CAACTGCC | 0.0774 |
| GCTAGGGA | -0.213 |
| CCAAGACC | -0.163 |
| AGATATAA | 0.157 |
| ATCGTTCA | 0.0333 |
| CTTTTTCA | 0.0208 |

At a glance, some entries already given:

| Sequence | PBM E-score |
| --- | --- |
| AGGAAGCC | 0.03 |
| ATGAGCAC | -0.0939 |

(listing goes on)

| Sequence | PBM E-score |
| --- | --- |
| CTAAAGAC | -0.119 |
| ACTGATTG | -0.137 |
| AACCTATT | -0.139 |
| AGGGAACG | -0.0901 |
| CCCTAAGA | -0.228 |
| GAGTAAAC | 0.0603 |
| ATTACGTA | 0.113 |
| GTTAGAAC | -0.0333 |
| AGCTCGGG | 0.138 |
| AATCAGTA | 0.00154 |
| GCGATGTA | -0.0966 |
| AGTCTGTG | -0.0884 |
| ACCTCTGC | -0.24 |
| GGACGTGA | -0.265 |
| AGTACCAG | 0.0281 |
| AATGCTTC | 0.055 |
| TAACCGGA | 0.279 |
| CACTACAC | -0.0195 |
| CGTTTGGA | -0.059 |
| CTTTGGCC | -0.0755 |
| CGGGCATA | -0.0118 |
| AAGCTGCG | -0.141 |
| AATGAGAC | -0.187 |
| TCAACCAA | 0.00012 |
| ACCTTGAT | 0.104 |

| Sequence | PBM E-score |
| --- | --- |
| TGATGTAA | 0.152 |
| GTGGTTCA | 0.0362 |
| CCGGGGTA | 0.129 |
| CCAGGGGG | -0.342 |
| ACTGGCCC | -0.169 |
| AATGTGGG | -0.155 |
| GCGAACAA | 0.246 |
| GCGTCTCA | 0.00627 |
| AAGAGACA | -0.00829 |
| ACCGCCCA | 0.00012 |
| AACAGGGC | -0.186 |
| CTCAAATC | -0.224 |
| AACCAAAG | -0.00782 |
| CCACGGCC | 0.019 |
| CAAACCTA | -0.0405 |
| AGCATTCC | 0.052 |
| CAACATAG | -0.177 |
| CTTTTTTA | 0.132 |
| ACCTACTA | -0.105 |
| TTACCGAA | 0.336 |
| TGATATCA | 0.0471 |
| ATAGGATC | -0.00942 |
| ATTATGCG | 0.171 |
| ACTGTGAG | -0.0309 |
| CTATCACA | 0.0155 |

| Sequence | PBM E-score |
| --- | --- |
| GCTTACCA | 0.0715 |
| CATACGTA | 0.0443 |
| GTGATCTA | 0.16 |
| ACCACATA | 0.104 |
| ACGCATCG | -0.102 |
| GAACGTAC | -0.0988 |
| CTCTTTAA | 0.0738 |
| ATAACTCA | 0.0762 |
| ACTCTTGA | -0.13 |
| GGGCATAA | 0.0125 |
| TCAATTAA | 0.196 |
| GGAGCGAC | -0.0787 |
| GAACTCTA | 0.00847 |
| CGTTGGGC | -0.196 |
| AGGCTGAT | -0.161 |
| CCAAAAAA | 0.275 |
| GCTCCCCC | -0.395 |
| AAAAACGT | 0.0244 |
| AGGCTTAC | -0.0812 |
| CGGCATAC | 0.195 |
| CACACGAC | -0.128 |
| AAGTTGTG | -0.0216 |
| ATTACACG | -0.0203 |
| AACAAATA | 0.204 |
| AGGGTAAG | 0.131 |

| Sequence | PBM E-score |
| --- | --- |
| AGATGAAT | -0.145 |
| TAAACGCA | 0.0568 |
| TCCCACGA | 0.0909 |
| CCGGACTA | 0.273 |
| GCTAGGTA | -0.0529 |
| CCTGACGA | 0.0162 |
| CGCCCTTC | -0.0242 |
| CTAGCCTA | -0.123 |
| AGGACGGG | -0.319 |
| TAGCGTAA | 0.0813 |
| CTCTGCGC | -0.0561 |
| AGTATTGC | 0.0896 |
| GGTACAAC | 0.0126 |
| CTCATTGC | -0.00414 |
| GAATTTCA | 0.0933 |
| CCAGGCAC | -0.201 |
| CCCTCTCG | -0.293 |
| CAACCAAC | -0.133 |
| TTCGGAAA | 0.402 |
| ATTAGATA | 0.0273 |
| AGCCTCCA | -0.232 |
| GGTGTCAA | -0.0555 |
